# ± gives the standard deviation of the averaged measurements. The list shows a part of the results.
# Target: T1, A0A087WUA5|Q9H223 (UniProt Q9H223)
# T1 sequence (whole entry): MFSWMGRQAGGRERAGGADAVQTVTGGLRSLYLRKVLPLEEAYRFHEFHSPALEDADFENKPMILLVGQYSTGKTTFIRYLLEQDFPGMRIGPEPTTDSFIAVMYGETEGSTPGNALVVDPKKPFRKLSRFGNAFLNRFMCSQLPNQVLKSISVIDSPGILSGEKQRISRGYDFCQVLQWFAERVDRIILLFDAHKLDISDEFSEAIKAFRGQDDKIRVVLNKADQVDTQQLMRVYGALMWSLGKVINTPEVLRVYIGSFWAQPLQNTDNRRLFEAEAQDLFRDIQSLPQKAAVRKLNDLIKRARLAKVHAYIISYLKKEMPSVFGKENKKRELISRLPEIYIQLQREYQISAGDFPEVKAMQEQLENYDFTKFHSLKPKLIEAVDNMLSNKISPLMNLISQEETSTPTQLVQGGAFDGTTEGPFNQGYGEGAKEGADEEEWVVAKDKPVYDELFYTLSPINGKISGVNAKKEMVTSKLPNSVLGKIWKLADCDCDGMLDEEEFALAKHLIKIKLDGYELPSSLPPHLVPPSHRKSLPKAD
# Assay: NP40-soluble protein abundance relative to vehicle (solubility fold change) (ratio); higher = more soluble protein in presence of GTP
# How it was run: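 In three independent experiments, Jurkat crude lysate made by Dounce homogenisation was treated for 10 min at room temperature and then 3 min at 37 °C with eight concentrations ranging from 0.1 to 10 mM. It was then solubilised with 0.8% NP40 plus benzonase for 60 min at 4 °C and ultracentrifuged. The supernatant was TMT-labelled for LC-MS/MS, and each value is the fold change against the detergent-processed vehicle for the same replicate, using vsn-normalised intensities.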
smiles,measurement,setting,value
Nc1nc2c(ncn2[C@@H]2O[C@H](COP(=O)(O)OP(=O)(O)OP(=O)(O)O)[C@@H](O)[C@H]2O)c(=O)[nH]1 [guanosine triphosphate],NP40-soluble protein abundance,concentration: 0.1mM,0.985 ± 0.034
same,NP40-soluble protein abundance,concentration: 0.5mM,0.959 ± 0.04
same,NP40-soluble protein abundance,concentration: 1mM,0.957 ± 0.026
same,NP40-soluble protein abundance,concentration: 2mM,0.937 ± 0.03
same,NP40-soluble protein abundance,concentration: 4mM,0.947 ± 0.045
same,NP40-soluble protein abundance,concentration: 6mM,0.938 ± 0.024
same,NP40-soluble protein abundance,concentration: 8mM,0.938 ± 0.064
same,NP40-soluble protein abundance,concentration: 10mM,0.926 ± 0.065

# Source: the supplement of paper PMC6411743
